From article PMC10679814, “Yeast lunapark regulates the formation of trans-Sey1p complexes for homotypic ER membrane fusion” (iScience, 2023)
Results are given in words; binding and its absence hold for the method and conditions named. In cells and extracts the contact can be indirect. Some results given as binding are weak or reduced against the parent protein; the word gives no strength. Sequences can lack the tags named with a protein.

Experiments:
[1] = target: Sey1p, as two differently tagged copies (Sey1p-myc and EGFP-Sey1p) in yeast ER microsomes (S. cerevisiae) (UniProt Q99287); experiment: co-IP; trans-Sey1p complex formation assay as a1, with 1 mM GTPγS
[2] = target: Sey1p, as two differently tagged copies (Sey1p-myc and EGFP-Sey1p) in yeast ER microsomes (S. cerevisiae) (UniProt Q99287); experiment: co-IP; trans-Sey1p complex formation assay as a1, with 1 mM GTP
[3] = target: Sey1p, as two differently tagged copies (Sey1p-myc and EGFP-Sey1p) in yeast ER microsomes (S. cerevisiae) (UniProt Q99287); experiment: co-IP; trans-Sey1p complex formation assay as a1, without guanine nucleotide
[4] = target: Sey1p, as two differently tagged copies (Sey1p-myc and EGFP-Sey1p) in yeast ER microsomes (S. cerevisiae) (UniProt Q99287); experiment: co-IP; trans-Sey1p complex formation assay: microsomes from BJ-Sey1p-myc and from BJ-EGFP-Sey1p mixed, 27°C, 10 mM Pipes-KOH pH 6.8, 125 mM KCl, 5 mM MgCl2, 200 mM sorbitol, with 1 mM GMP-PNP; pelleted, solubilised in 0.4% Triton X-100, anti-myc IP, blot with anti-GFP; microsomes of wild-type, lnp1Δ, LNP1-overexpressing or Lnp1p-3xHA variant strains
[5] = target: Sey1p, as two differently tagged copies (Sey1p-myc and EGFP-Sey1p) in yeast ER microsomes (S. cerevisiae) (UniProt Q99287); experiment: co-IP; trans-Sey1p complex formation assay as a1, with 1 mM GDP
[6] = target: Sey1p, as two differently tagged copies (Sey1p-myc and EGFP-Sey1p) in yeast ER microsomes (S. cerevisiae) (UniProt Q99287); experiment: co-IP; trans-Sey1p complex formation assay as a1, with 1 mM GDP/AlF4-
[7] = target: Sey1p, as two differently tagged copies (Sey1p-myc and EGFP-Sey1p) in yeast ER microsomes (S. cerevisiae) (UniProt Q99287); experiment: co-IP; trans-Sey1p complex formation assay as a1, with 1 mM GDP; remark: listed apart in the source
[8] = target: Sey1p, as two differently tagged copies (Sey1p-myc and EGFP-Sey1p) in yeast ER microsomes (S. cerevisiae) (UniProt Q99287); experiment: co-IP; cis-Sey1p complex assay: microsomes from a sey1Δ strain co-expressing Sey1p-myc and EGFP-Sey1p, solubilised, anti-myc IP with Protein A Sepharose, blot with anti-Sey1p; with or without LNP1

B1: Sey1p, as two differently tagged copies (Sey1p-myc and EGFP-Sey1p) in yeast ER microsomes (protein, UniProt Q99287 1-776)
chain: MADRPAIQLIDEEKEFHQSALQYFQQCIGNRDVGLDYHVISVFGSQSSGKSTLLNVLFNTNFDTMDAQVKRQQTTKGIWLAHTKQVNTTIEIDNDRPDIFVLDVEGSDGSERGEDQDFERKAALFAIAVSEVLIVNMWEQQIGLYQGNNMALLKTVFEVNLSLFGKNDNDHKVLLLFVIRDHVGVTPLSSLSDSVTRELEKIWTELSKPAGCEGSSLYDYFDLKFVGLAHKLLQEDKFTQDVKKLGDSFVMKGTENYYFKPQYHHRLPLDGWTMYAENCWDQIERNKDLDLPTQQILVARFKTEEISNEALEEFISKYDESIAPLKGNLGSLTSQLVKLKEECLTKYDEQASRYARNVYMEKREALNTKLNSHISGTINEFLESLMEKLWDDLKLEVSSRDKATTSFVESVAAGKSKIEKEFNESMETFKKLGLLISNEEITCKFSDDIEERIKQLRDAELKAKIGRIKKNLVPELKDHVIHLLSHPSKKVWDDIMNDFESTIKDNISAYQVEKDKYDFKIGLSESENAKIYKNIRILAWRTLDTTVHDYLKIDTIVSILRDRFEDVFRYDAEGSPRLWKTEEEIDGAFRVAKEHALEVFEVLSLAVTSDNVEIIPDVPMAEEESGEDNEIYRDNEGVFHSRRFAHILTELQKENVLDQFRRQINITVLDSKRSIITTRTHIPPWIYVLLAVLGWNEFVAVIRNPLFVTLTLILGATFFVIHKFGLWGPVVNVVQSAVGETRTAIKDKLRQFVVEDHEVKESFEMKDFSKNEQKEK
- binding [1]: no binding (condition: with 1 mM GTPγS)
- binding [2]: binds weakly
- binding [3]: binds weakly
- binding [4]: binds
- binding [5]: no binding (condition: with 1 mM GDP)
- binding [6]: binds
- binding [7]: binds weakly
- binding [8]: binds
